Measurements from patent publication US20040076995A1, “Nurr1 transcription factor 1-box mutants having monomeric transcriptional activation activity” (priority 2001, published 2004).
For at least one entry, the source does not settle the construct or the ends of the probe. No signal at the amounts used counts as a negative.

Assays:
[1] = system: Nurr1 KLL(554-556)AAA + RXR Nurr1 K554A,L555A,L556A; experiment: EMSA; details: no heterodimer on DNA; monomeric binding retained; protein translated in vitro; label: 32P (Klenow fill-in)
[2] = system: Nurr1 GKL(557-559)AAA + RXR Nurr1 G557A,K558A,L559A; experiment: EMSA; details: no heterodimer on DNA; monomeric binding retained; protein translated in vitro; label: 32P (Klenow fill-in)

AGCTTAAGGGGTTCACCGAAAGTTCACTCGCAT (double strand) [betaRE probe (hRARbeta2 promoter RARE)]
binding result [1]: no binding
binding result [2]: no binding
